In patent publication US20100137305A1, “AMINOPYRIMIDINES USEFUL AS KINASE INHIBITORS” (VERTEX PHARMACEUTICALS INCORPORATED, priority 2008, published 2010):
Some of these results come from one statement about several compounds together.

Amino acid sequences for entries named in this document (tags omitted).
UniProt Q96GD4, whole entry: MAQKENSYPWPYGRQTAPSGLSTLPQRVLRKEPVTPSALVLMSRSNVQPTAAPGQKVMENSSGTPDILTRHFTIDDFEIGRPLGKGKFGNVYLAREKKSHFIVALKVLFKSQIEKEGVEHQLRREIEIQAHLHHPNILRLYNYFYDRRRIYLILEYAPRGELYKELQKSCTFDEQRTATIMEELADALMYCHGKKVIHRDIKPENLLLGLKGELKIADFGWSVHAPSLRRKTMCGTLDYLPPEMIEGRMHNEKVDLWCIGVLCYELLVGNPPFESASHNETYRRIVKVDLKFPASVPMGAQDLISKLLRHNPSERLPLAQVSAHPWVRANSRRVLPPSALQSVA

Experiments:
[1] = Microsomal Stability Assay; format: in vitro ADME; settings: 5 μM compound
[2] = molecular target: T1, T315I mutant of human Abl (Homo sapiens, UniProt P00519, T315I); test: Mutant Abl Kinase (T315I) Activity Inhibition Assay (Upstate, radiometric); format: biochemical
T1 construct: purchased Upstate Cell Signaling Solutions (Dundee, UK)

Aurora-1 (Aurora B) = Aurora-1 (Aurora B) (Homo sapiens, UniProt Q96GD4); test: Aurora-1 (Aurora B) Inhibition Assay (radiometric); format: biochemical; settings: 800 μM ATP; read-out: Aurora B kinase activity Ki
Protocol: An assay buffer solution was prepared which consisted of 25 mM HEPES (pH 7.5), 10 mM MgCl2, 0.1% BSA and 10% glycerol. A 22 nM Aurora-B solution, also containing 1.7 mM DTT and 1.5 mM Kemptide (LRRASLG), was prepared in assay buffer. To 22 μL of the Aurora-B solution, in a 96-well plate, was added 2 μl of a compound stock solution in DMSO and the mixture allowed to equilibrate for 10 minutes at 25° C. The enzyme reaction was initiated by the addition of 16 μl stock [γ-^33P]-ATP Pi-ATP solution (˜20 nCi/μL) prepared in assay buffer, to a final assay concentration of 800 μM. The reaction was stopped after 3 hours by the addition of 16 μL 500 mM phosphoric acid and the levels of ^33P incorporation into the peptide substrate were determined by the following method.
A phosphocellulose 96-well plate (Millipore, Cat no. MAPHNOB50) was pre-treated with 100 μL of a 100 mM phosphoric acid prior to the addition of the enzyme reaction mixture (40 μL). […] Levels of non-enzyme catalyzed background radioactivity were determined by adding 16 μL of the 500 mM phosphoric acid to control wells, containing all assay components (which acts to denature the enzyme), prior to the addition of the [γ-^33P]-ATP solution. Levels of enzyme catalyzed ^33P incorporation were calculated by subtracting mean background counts from those measured at each inhibitor concentration. […]

Aurora-2 (Aurora A) = molecular target: T2, Aurora-2 (Aurora A) (Homo sapiens, UniProt O14965); test: Aurora-2 (Aurora A) Inhibition Assay, coupled enzyme assay; format: biochemical; settings: 400 μM ATP, 30° C.; read-out: Aurora A kinase activity Ki
T2 sequence (O14965 1-403): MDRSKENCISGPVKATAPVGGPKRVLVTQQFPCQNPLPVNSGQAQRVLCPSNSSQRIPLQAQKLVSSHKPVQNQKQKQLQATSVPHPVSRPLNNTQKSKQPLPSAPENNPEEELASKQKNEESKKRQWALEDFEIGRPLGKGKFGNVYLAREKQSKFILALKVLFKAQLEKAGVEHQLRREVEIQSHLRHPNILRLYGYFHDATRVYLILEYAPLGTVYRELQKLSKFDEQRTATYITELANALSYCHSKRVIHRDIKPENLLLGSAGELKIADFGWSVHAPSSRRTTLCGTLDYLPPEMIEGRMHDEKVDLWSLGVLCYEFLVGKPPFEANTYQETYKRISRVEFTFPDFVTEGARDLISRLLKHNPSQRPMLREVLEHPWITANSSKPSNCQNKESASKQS
Protocol: Compounds were screened for their ability to inhibit Aurora-2 using a standard coupled enzyme assay (Fox et al., Protein Sci., (1998) 7, 2249). Assays were carried out in a mixture of 100 mM Hepes (pH7.5), 10 mM MgCl2, 1 mM DTT, 25 mM NaCl, 2.5 mM phosphoenolpyruvate, 300 μM NADH, 30 μg/ml pyruvate kinase and 10 μg/ml lactate dehydrogenase. Final substrate concentrations in the assay were 400 μM ATP (Sigma Chemicals) and 570 μM peptide (Kemptide, American Peptide, Sunnyvale, Calif.). Assays were carried out at 30° C. and in the presence of 40 nM Aurora-2.
An assay stock buffer solution was prepared containing all of the reagents listed above, with the exception of Aurora-2 and the test compound of interest. 55 μl of the stock solution was placed in a 96 well plate followed by addition of 2 μl of DMSO stock containing serial dilutions of the test compound (typically starting from a final concentration of 7.5 μM). The plate was preincubated for 10 minutes at 30° C. and the reaction initiated by addition of 10 μl of Aurora-2. Initial reaction rates were determined with a Molecular Devices SpectraMax Plus plate reader over a 10 minute time course. IC50 and Ki data were calculated from non-linear regression analysis using the Prism software package (GraphPad Prism version 3.0cx for Macintosh, GraphPad Software, San Diego Calif., USA).

Row | SMILES | % parent remaining after 30 minutes incubation with human liver microsomes [1] [%] | % parent remaining after 60 minutes incubation with human liver microsomes [1] [%] | further results
1 | Cc1cc(Nc2cc(N3CCC(F)C3)nc(Sc3ccc(NC(=O)CC(F)(F)F)cc3)n2)[nH]n1 (centres unmarked) [Compound I-78] | > 50 | > 50 | Ki [2]: < 200 nM; Ki (Aurora-1 (Aurora B)): ≤ 10 nM; Ki (Aurora-2 (Aurora A)): ≤ 10 nM
2 | CCC(=O)Nc1ccc(Sc2nc(Nc3cc(C)n[nH]3)cc(N3CCC(F)C3)n2)cc1 (centres unmarked) [Compound I-18] | > 50 | > 50 | –
3 | Cc1cc(Nc2cc(N3CCC(F)C3)nc(Sc3ccc(NC(=O)c4ccccc4Cl)cc3)n2)[nH]n1 (centres unmarked) [Compound I-35] | > 50 | > 50 | –
4 | CCC(=O)Nc1ccc(Sc2nc(Nc3cc(C)n[nH]3)cc(N3CCC4(CCN(C)C4)CC3)n2)cc1 [Compound I-53] | > 50 | > 50 | –
5 | Cc1cc(Nc2cc(N3CCC(N4CCOCC4)CC3)nc(Sc3ccc(NC(=O)C4(C(F)(F)F)CC4)cc3)n2)[nH]n1 [Compound I-67] | > 50 | – | –
6 | Cc1cnc(Nc2cc(N3CC4CCCNC4C3)nc(Sc3ccc(NC(=O)C4CC4)cc3)n2)s1 (centres unmarked) [Compound I-59] | – | > 50 | –
7 | CCC(=O)Nc1ccc(Sc2nc(Nc3cc(C)n[nH]3)cc(N3CCC(C#N)CC3)n2)cc1 [Compound I-16] | > 50 | – | –
8 | CCC(=O)Nc1ccc(Sc2nc(Nc3cc(C)n[nH]3)cc(N3CCC(C)(N4CCCC4)CC3)n2)cc1 [Compound I-34] | > 50 | > 50 | –
9 | Cc1cc(Nc2cc(N3CCC(F)C3)nc(Sc3ccc(NC(=O)CCC(F)(F)F)cc3)n2)[nH]n1 (centres unmarked) [Compound I-81] | > 50 | > 50 | –
10 | CCC(=O)Nc1ccc(Sc2nc(Nc3cc(C)n[nH]3)cc(N3CCC(N4CCCC4(C)C)CC3)n2)cc1 [Compound I-33] | – | > 50 | –
11 | Cc1cc(Nc2cc(N3CCC4(CCN(C)C4)CC3)nc(Sc3ccc(NC(=O)C4CC4)c(F)c3)n2)[nH]n1 [Compound I-32] | > 50 | > 50 | –
12 | Cc1cc(Nc2cc(N3CCC(F)C3)nc(Sc3ccc(NC(=O)c4ccccc4C(F)(F)F)cc3)n2)[nH]n1 (centres unmarked) [Compound I-76] | > 50 | > 50 | –
13 | CCC(=O)Nc1ccc(Sc2nc(Nc3cc(C)n[nH]3)cc(N3CCC(O)(CC(C)(C)C)C3)n2)cc1 (centres unmarked) [Compound I-2] | > 50 | – | –
14 | Cc1cc(Nc2cc(N3CCC(N4CCN(C)CC4)CC3)nc(Sc3ccc(NC(=O)CC(F)(F)F)cc3)n2)[nH]n1 [Compound I-73] | > 50 | > 50 | –
15 | Cc1cc(Nc2cc(N3CCC(O)CC3)nc(Sc3ccc(NC(=O)CC(F)(F)F)cc3)n2)[nH]n1 [Compound I-80] | > 50 | – | –
16 | Cc1cc(Nc2cc(N3CCC(N4CCCC4)CC3)nc(Sc3ccc(NC(=O)CC4CC4)cc3)n2)n[nH]1 [Compound I-83] | > 50 | > 50 | –
17 | Cc1cc(Nc2cc(N3CCC(F)C3)nc(Sc3ccc(NC(=O)CC(F)(F)F)cc3)n2)[nH]n1 (centres unmarked) [Compound I-71] | > 50 | > 50 | –
18 | CCC(=O)Nc1ccc(Sc2nc(Nc3cc(C)n[nH]3)cc(N3CCC(N4CCCC4)CC3)n2)cc1 [Compound I-41] | – | > 50 | –
19 | Cc1cc(Nc2cc(N3CCC(N4CCCC4)CC3)nc(Sc3ccc(NC(=O)CC(F)(F)F)cc3)n2)[nH]n1 [Compound I-68] | – | > 50 | –
20 | CCC(=O)Nc1ccc(Sc2nc(Nc3cc(C)n[nH]3)cc(N3CC[C@H](N(C)CC)C3)n2)cc1 [Compound I-50] | > 50 | – | –
21 | CCC(=O)Nc1ccc(Sc2nc(Nc3cc(C)n[nH]3)cc(N3CCC(N4CCOCC4)CC3)n2)cc1 [Compound I-40] | > 50 | – | –
22 | CCC(=O)Nc1ccc(Sc2nc(Nc3cc(C)n[nH]3)cc(N3CCC(C)(O)C3)n2)cc1 (centres unmarked) [Compound I-11] | > 50 | > 50 | –
23 | CCC(=O)Nc1ccc(Sc2nc(Nc3ncc(C)s3)cc(N3CCC(N4CCCC4)CC3)n2)cc1 [Compound I-49] | > 50 | > 50 | –
24 | CCC(=O)Nc1ccc(Sc2nc(Nc3cc(C4CC4)n[nH]3)cc(N3CCC(N4CCCC4)CC3)n2)cc1 [Compound I-56] | > 50 | > 50 | –
25 | Cc1cc(Nc2cc(N3CCC(N4CCC(F)C4)CC3)nc(Sc3ccc(NC(=O)CC(F)(F)F)cc3)n2)[nH]n1 (centres unmarked) [Compound I-63] | > 50 | – | –
26 | CCC(=O)Nc1ccc(Sc2nc(Nc3cc(C)n[nH]3)cc(N3CCC(N4[C@H](C)CC[C@H]4C)CC3)n2)cc1 [Compound I-57] | > 50 | > 50 | –
